These are yes or no findings as the source states them, for the method shown. For some assays here: Binding can be weak; no strength is given.
B1: E3 (p75IC-binding protein encoded by clone E3) (protein)
chain: TFKIRMEPDETVKVLKEKIEAEKGRDAFPVAGQKLIYAGKILSDDVPIRDYRIDEKNFVVVMVTKTKAGQGTSAPPEASPTAAPESSTSFPPAPTSGMSHPPPAAREDKSPSEESTPTPEQEPCLZ
B2: E19 (p75IC-binding protein encoded by clone E19) (protein)
chain: EAAGRERERTLEYAEAHAFKSPSKENKKKDKDMLEDKFKSNNLEREQEQLDRIVKESGGKLTRRLVNSQCEFERRKPDGTTTLGLLHPVDPIVGEPGYCPVRLGMTTGRLQSGVNTLQGFKEDKRNKVTPVLYLELWAPTVLYAPHYDSTFANYQQGLI
B3: protein encoded by the 230 clone (protein)
chain: GPIREAGLAGWLALGCSGPPAEAAGGAGEPWPQHSGKGQLAGRNAWVKKRKAPRENSPGVRSCRASGRASRPHGDPFLLTLPRARHPVTLNVTIQVSLKQRNVRFNTPFRRGEN

The chains behind the UniProt entries cited, without tags or fusion partners. Where a name states a change or a piece, a line headed by the entry shows the natural chain unless it says otherwise.
UniProt P20333: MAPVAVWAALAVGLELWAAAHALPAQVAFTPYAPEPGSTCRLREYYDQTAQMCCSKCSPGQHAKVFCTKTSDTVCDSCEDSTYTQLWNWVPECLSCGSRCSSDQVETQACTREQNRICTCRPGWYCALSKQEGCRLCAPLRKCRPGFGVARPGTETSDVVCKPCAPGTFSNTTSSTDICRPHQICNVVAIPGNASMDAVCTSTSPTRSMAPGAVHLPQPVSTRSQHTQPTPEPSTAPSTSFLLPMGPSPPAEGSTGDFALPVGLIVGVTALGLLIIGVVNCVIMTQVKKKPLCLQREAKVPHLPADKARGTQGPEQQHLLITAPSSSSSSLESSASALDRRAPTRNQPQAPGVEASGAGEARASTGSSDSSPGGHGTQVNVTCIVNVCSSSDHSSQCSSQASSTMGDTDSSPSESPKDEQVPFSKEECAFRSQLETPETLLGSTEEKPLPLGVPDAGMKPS

How the values were obtained:
[1] = target: full-length intracellular domain of the p75-TNF-R (p75IC) (human) (UniProt P20333); assay: yeast two-hybrid (SFY526), various baits
cyclin D = assay: yeast two-hybrid (SFY526), various baits
[2] = target: full-length intracellular domain of the p75-TNF-R (p75IC) (human) (UniProt P20333); assay: yeast two-hybrid
[3] = target: full-length intracellular domain of the p75-TNF-R (p75IC) (human) (UniProt P20333); assay: yeast two-hybrid (L40 screen, specificity in SFY526)

Binder	binding [1]	binding (cyclin D)	binding [2]	binding [3]
B1	binds	no binding	binds	binds
B2	binds	no binding	binds	binds
B3	binds	–	binds	binds
